# From patent US20180362585A1 (Bicycle, published 2018)
# Chains of the proteins cited; added tags and fusions are not shown. Residues count along the entry.
# UniProt P14272, residues 391-638: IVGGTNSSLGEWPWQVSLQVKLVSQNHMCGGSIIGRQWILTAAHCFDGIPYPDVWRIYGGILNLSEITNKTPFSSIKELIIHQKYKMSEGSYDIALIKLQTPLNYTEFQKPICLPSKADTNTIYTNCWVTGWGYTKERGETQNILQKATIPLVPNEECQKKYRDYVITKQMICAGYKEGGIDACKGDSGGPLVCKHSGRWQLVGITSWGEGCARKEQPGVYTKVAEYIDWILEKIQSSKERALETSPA
# No constants are given. Whether binding was seen depends on the method and setting. Some entries that bind do so weakly or less than the wild type.
# Target: T1, rat plasma Kallikrein (rat, UniProt P14272 391-638, limits assumed)
# T1 construct: domain: catalytic domain; also called rPK; rat PK
# Assay: enzyme inhibition
# Procedure: Functional enzyme assays were conducted in 10 mM Tris HCl, 150 mM NaCl, 10 mM MgCl2, 1 mM CaCl₂) and 1 mg/mL BSA (all Sigma UK) pH7.4 at 25° C. in solid black 96 well plates. […] Release of AMC was measured using a Pherastar FS (BMG Labtech), excitation 360 nm, emission 460 nm. The rate of the linear phase of the reaction, typically 5 to 45 minutes, was calculated in MARS data analysis software (BMG labtech). The rate was then used to calculate the IC50 and Ki in Prism (GraphPad).
row,Binder,binding
1,ACSWPARCVHQDLCA (3 Cys on TMB) [06-34-01],binds
2,ACRWPARCTHQDLCA (3 Cys on TMB) [06-34-02],binds
3,ACRWPARCMHQDLCA (3 Cys on TMB) [06-34-04],binds
4,ACRWPARCLHQDLCA (3 Cys on TMB) [06-34-05],binds
